PubChem BioAssay AID652259, Drosophila RNAi Screening Center | 2013
In all, the deposit lists about 22,000 reagents; this is a random part of those with a known target gene and a result. Over the whole deposit, 233 (1.1%) are marked active. 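Light values are raw, unnormalised plate reads; the ratio scores behind the reporter calls were not deposited.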 The numbers tell different reagents against one gene apart. Reagent sequences are not shown. Not given: the amount of reagent, the time to read-out, the dose of the treatment.

Aim: 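Genome-wide hunt for genes that control Wingless pathway activity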 (primary screen)
Cell system: Drosophila clone 8 imaginal disc epithelial cells
Reagents: long dsRNA against Drosophila genes
Treatment: pathway stimulated by co-transfected Wingless expression plasmid
Detection: 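Firefly luciferase from a tcf-site Wingless reporter, measured alongside co-transfected Renilla luciferase that tracks transfection; pathway stimulated by a Wingless plasmid; the firefly-to-Renilla ratio is not deposited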
Direction: firefly reporter light: higher = more Wg reporter light, before normalisation; Renilla control light: higher = more transfected or surviving cells
Active means: 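Strong candidates differ from their plate mean by at least two out of four per-plate statistical tests; weak candidates meet just one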
Meaning of the calls: active = candidate regulator (raises or lowers reporter); inactive = not a candidate

{"gene knocked down": "CG13004", "reagent no.": 1, "firefly reporter light, replicate 1": 26947, "Renilla control light, replicate 1": 9472, "activity call": "inactive"}
{"gene knocked down": "Teh1", "reagent no.": 1, "firefly reporter light, replicate 1": 20156, "Renilla control light, replicate 1": 5264, "activity call": "inactive"}
{"gene knocked down": "CG5768", "reagent no.": 1, "firefly reporter light, replicate 1": 2989, "firefly reporter light, replicate 2": 4907, "Renilla control light, replicate 1": 1590, "Renilla control light, replicate 2": 2003, "activity call": "inactive"}
{"gene knocked down": "CG10063", "reagent no.": 1, "firefly reporter light, replicate 1": 3632, "firefly reporter light, replicate 2": 13257, "Renilla control light, replicate 1": 2080, "Renilla control light, replicate 2": 3415, "activity call": "inactive"}
{"gene knocked down": "Zdhhc8", "reagent no.": 1, "reporter change call, replicate 1": "Wg reporter activity raised", "firefly reporter light, replicate 1": 29384, "Renilla control light, replicate 1": 3869, "activity call": "active"}
{"gene knocked down": "Zdhhc8", "reagent no.": 2, "firefly reporter light, replicate 1": 22163, "Renilla control light, replicate 1": 9842, "activity call": "inactive"}
{"gene knocked down": "Cpr92F", "reagent no.": 1, "firefly reporter light, replicate 1": 14962, "Renilla control light, replicate 1": 4905, "activity call": "inactive"}
{"gene knocked down": "CG12655", "reagent no.": 1, "firefly reporter light, replicate 1": 18076, "Renilla control light, replicate 1": 10832, "activity call": "inactive"}
{"gene knocked down": "blow", "reagent no.": 1, "firefly reporter light, replicate 1": 9285, "Renilla control light, replicate 1": 1642, "activity call": "inactive"}
{"gene knocked down": "CG8093", "reagent no.": 1, "firefly reporter light, replicate 1": 5419, "Renilla control light, replicate 1": 1989, "activity call": "inactive"}
{"gene knocked down": "CG43181", "reagent no.": 1, "firefly reporter light, replicate 1": 2421, "Renilla control light, replicate 1": 812, "activity call": "inactive"}
{"gene knocked down": "scu", "reagent no.": 1, "firefly reporter light, replicate 1": 17507, "Renilla control light, replicate 1": 6787, "activity call": "inactive"}
{"gene knocked down": "Cyp304a1", "reagent no.": 1, "firefly reporter light, replicate 1": 13920, "Renilla control light, replicate 1": 2083, "activity call": "inactive"}

The list goes on (2 carried over from the part before).
{"gene knocked down": "scu", "reagent no.": 1, "firefly reporter light, replicate 1": 17507, "Renilla control light, replicate 1": 6787, "activity call": "inactive"}
{"gene knocked down": "Cyp304a1", "reagent no.": 1, "firefly reporter light, replicate 1": 13920, "Renilla control light, replicate 1": 2083, "activity call": "inactive"}
{"gene knocked down": "HnRNP-K", "reagent no.": 1, "firefly reporter light, replicate 1": 19960, "Renilla control light, replicate 1": 8183, "activity call": "inactive"}
{"gene knocked down": "HnRNP-K", "reagent no.": 2, "firefly reporter light, replicate 1": 5.61e5, "firefly reporter light, replicate 2": 4.35e5, "Renilla control light, replicate 1": 1.50e5, "Renilla control light, replicate 2": 1.25e5, "activity call": "inactive"}
{"gene knocked down": "CG44251", "reagent no.": 1, "firefly reporter light, replicate 1": 5501, "Renilla control light, replicate 1": 1280, "activity call": "inactive"}
{"gene knocked down": "bt", "reagent no.": 1, "firefly reporter light, replicate 1": 2075, "firefly reporter light, replicate 2": 5302, "Renilla control light, replicate 1": 812, "Renilla control light, replicate 2": 2188, "activity call": "inactive"}
{"gene knocked down": "bt", "reagent no.": 2, "firefly reporter light, replicate 1": 1571, "firefly reporter light, replicate 2": 6931, "Renilla control light, replicate 1": 969, "Renilla control light, replicate 2": 2263, "activity call": "inactive"}
{"gene knocked down": "Gpdh3", "reagent no.": 1, "firefly reporter light, replicate 1": 33720, "Renilla control light, replicate 1": 6186, "activity call": "inactive"}
{"gene knocked down": "ena", "reagent no.": 1, "firefly reporter light, replicate 1": 11831, "Renilla control light, replicate 1": 5896, "activity call": "inactive"}
{"gene knocked down": "ena", "reagent no.": 2, "firefly reporter light, replicate 1": 14022, "Renilla control light, replicate 1": 3699, "activity call": "inactive"}
{"gene knocked down": "CG15571", "reagent no.": 1, "firefly reporter light, replicate 1": 20400, "Renilla control light, replicate 1": 10273, "activity call": "inactive"}
{"gene knocked down": "Ets21C", "reagent no.": 1, "firefly reporter light, replicate 1": 6417, "firefly reporter light, replicate 2": 6930, "Renilla control light, replicate 1": 1696, "Renilla control light, replicate 2": 3298, "activity call": "inactive"}
{"gene knocked down": "CG3880", "reagent no.": 1, "firefly reporter light, replicate 1": 3796, "firefly reporter light, replicate 2": 10492, "Renilla control light, replicate 1": 1122, "Renilla control light, replicate 2": 3693, "activity call": "inactive"}
{"gene knocked down": "CG3880", "reagent no.": 2, "firefly reporter light, replicate 1": 3.67e5, "firefly reporter light, replicate 2": 3.51e5, "Renilla control light, replicate 1": 1.53e5, "Renilla control light, replicate 2": 1.34e5, "activity call": "inactive"}
{"gene knocked down": "Gprk2", "reagent no.": 1, "firefly reporter light, replicate 1": 1159, "firefly reporter light, replicate 2": 3177, "Renilla control light, replicate 1": 666, "Renilla control light, replicate 2": 1072, "activity call": "inactive"}
{"gene knocked down": "Vm26Aa", "reagent no.": 1, "firefly reporter light, replicate 1": 2320, "firefly reporter light, replicate 2": 9653, "Renilla control light, replicate 1": 795, "Renilla control light, replicate 2": 2762, "activity call": "inactive"}
{"gene knocked down": "CG14546", "reagent no.": 1, "firefly reporter light, replicate 1": 16785, "Renilla control light, replicate 1": 15216, "activity call": "inactive"}
{"gene knocked down": "CG33270", "reagent no.": 1, "firefly reporter light, replicate 1": 5053, "Renilla control light, replicate 1": 2688, "activity call": "inactive"}
{"gene knocked down": "Nup93-2", "reagent no.": 1, "firefly reporter light, replicate 1": 3440, "Renilla control light, replicate 1": 1920, "activity call": "inactive"}
{"gene knocked down": "alpha-Est6", "reagent no.": 1, "firefly reporter light, replicate 1": 3648, "Renilla control light, replicate 1": 832, "activity call": "inactive"}
{"gene knocked down": "CG2124", "reagent no.": 1, "firefly reporter light, replicate 1": 15489, "Renilla control light, replicate 1": 7227, "activity call": "inactive"}
